Results as given in the supplement of paper PMC10849652.
The list shows a part of the results.

Sequences of proteins named here, by UniProt entry; tags and fusion partners are left off. A change or cut given only in a name is not applied to a line headed by its entry.
UniProt Q14677: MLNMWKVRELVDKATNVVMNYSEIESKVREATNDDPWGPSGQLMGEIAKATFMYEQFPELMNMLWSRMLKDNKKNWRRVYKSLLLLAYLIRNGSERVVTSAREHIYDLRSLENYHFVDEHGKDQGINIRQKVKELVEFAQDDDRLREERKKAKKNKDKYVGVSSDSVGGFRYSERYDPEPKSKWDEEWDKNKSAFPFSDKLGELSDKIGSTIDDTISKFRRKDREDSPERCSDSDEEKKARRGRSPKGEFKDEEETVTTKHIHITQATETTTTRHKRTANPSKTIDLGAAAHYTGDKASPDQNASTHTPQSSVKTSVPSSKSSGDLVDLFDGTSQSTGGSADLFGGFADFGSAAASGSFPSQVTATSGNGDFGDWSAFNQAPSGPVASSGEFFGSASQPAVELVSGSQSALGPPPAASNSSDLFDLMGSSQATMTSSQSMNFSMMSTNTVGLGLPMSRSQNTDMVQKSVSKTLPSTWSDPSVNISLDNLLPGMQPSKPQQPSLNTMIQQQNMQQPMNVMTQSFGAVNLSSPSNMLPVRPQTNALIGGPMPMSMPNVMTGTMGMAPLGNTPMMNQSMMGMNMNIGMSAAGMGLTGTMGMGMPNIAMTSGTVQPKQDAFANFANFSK
UniProt Q9NSE2: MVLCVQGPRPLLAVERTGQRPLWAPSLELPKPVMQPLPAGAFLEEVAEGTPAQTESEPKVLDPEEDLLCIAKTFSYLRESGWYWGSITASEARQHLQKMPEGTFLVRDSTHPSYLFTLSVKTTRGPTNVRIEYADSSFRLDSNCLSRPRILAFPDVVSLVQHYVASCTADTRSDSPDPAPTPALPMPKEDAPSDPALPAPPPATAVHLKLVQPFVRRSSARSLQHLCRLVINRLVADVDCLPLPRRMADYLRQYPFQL
UniProt Q5T1J5: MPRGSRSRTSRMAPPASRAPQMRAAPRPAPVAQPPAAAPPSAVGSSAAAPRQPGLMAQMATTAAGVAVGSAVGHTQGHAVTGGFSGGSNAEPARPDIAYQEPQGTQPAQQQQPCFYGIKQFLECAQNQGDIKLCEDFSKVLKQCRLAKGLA
UniProt O96005: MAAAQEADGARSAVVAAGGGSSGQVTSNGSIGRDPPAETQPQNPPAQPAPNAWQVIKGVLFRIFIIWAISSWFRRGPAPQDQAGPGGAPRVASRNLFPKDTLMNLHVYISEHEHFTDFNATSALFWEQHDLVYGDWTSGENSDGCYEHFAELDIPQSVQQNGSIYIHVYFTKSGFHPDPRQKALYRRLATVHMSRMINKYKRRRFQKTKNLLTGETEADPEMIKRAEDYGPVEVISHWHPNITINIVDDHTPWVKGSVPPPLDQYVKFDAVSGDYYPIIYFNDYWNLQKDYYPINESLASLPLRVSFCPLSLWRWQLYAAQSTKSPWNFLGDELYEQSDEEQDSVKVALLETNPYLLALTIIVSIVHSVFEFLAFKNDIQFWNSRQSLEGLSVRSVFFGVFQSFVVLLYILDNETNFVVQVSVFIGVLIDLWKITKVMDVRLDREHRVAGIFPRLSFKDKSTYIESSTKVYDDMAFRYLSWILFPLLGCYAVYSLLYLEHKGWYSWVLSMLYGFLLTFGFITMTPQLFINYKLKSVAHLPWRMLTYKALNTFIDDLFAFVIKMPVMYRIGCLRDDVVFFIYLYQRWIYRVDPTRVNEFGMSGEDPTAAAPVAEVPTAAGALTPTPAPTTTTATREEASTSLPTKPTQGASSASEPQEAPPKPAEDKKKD
UniProt P35790, whole entry, looked up: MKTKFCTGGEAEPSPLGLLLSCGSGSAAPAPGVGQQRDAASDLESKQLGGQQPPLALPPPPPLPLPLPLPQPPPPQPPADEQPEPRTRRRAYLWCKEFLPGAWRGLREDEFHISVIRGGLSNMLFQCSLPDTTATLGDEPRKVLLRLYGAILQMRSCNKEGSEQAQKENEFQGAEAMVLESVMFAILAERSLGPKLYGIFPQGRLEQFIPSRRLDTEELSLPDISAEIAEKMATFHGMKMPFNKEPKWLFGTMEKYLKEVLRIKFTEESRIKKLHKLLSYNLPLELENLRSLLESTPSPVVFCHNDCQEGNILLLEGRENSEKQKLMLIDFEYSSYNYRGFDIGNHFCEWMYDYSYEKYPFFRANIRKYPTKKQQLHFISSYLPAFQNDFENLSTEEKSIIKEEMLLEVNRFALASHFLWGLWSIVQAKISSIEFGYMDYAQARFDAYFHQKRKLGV
UniProt Q99828: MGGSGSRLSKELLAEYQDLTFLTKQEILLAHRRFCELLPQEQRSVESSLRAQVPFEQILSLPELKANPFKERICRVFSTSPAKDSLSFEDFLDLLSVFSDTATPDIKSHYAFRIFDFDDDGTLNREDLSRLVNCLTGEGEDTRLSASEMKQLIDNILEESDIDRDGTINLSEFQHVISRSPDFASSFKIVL
UniProt Q13112, whole entry, looked up: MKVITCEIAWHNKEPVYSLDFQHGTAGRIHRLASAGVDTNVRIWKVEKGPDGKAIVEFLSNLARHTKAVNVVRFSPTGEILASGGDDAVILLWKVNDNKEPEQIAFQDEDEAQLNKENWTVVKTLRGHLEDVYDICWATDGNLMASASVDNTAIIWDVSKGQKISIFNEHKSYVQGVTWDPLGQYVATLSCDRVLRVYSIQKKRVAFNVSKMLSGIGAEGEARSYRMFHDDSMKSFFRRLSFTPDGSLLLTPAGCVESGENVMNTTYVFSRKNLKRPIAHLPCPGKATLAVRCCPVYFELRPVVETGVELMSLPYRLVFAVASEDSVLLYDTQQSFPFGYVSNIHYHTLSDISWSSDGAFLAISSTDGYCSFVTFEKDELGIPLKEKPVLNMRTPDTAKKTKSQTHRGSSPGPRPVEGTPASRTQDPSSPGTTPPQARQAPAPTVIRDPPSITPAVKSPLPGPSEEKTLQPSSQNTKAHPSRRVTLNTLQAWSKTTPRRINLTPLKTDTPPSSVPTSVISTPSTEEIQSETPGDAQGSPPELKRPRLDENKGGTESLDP
UniProt I3L2J0: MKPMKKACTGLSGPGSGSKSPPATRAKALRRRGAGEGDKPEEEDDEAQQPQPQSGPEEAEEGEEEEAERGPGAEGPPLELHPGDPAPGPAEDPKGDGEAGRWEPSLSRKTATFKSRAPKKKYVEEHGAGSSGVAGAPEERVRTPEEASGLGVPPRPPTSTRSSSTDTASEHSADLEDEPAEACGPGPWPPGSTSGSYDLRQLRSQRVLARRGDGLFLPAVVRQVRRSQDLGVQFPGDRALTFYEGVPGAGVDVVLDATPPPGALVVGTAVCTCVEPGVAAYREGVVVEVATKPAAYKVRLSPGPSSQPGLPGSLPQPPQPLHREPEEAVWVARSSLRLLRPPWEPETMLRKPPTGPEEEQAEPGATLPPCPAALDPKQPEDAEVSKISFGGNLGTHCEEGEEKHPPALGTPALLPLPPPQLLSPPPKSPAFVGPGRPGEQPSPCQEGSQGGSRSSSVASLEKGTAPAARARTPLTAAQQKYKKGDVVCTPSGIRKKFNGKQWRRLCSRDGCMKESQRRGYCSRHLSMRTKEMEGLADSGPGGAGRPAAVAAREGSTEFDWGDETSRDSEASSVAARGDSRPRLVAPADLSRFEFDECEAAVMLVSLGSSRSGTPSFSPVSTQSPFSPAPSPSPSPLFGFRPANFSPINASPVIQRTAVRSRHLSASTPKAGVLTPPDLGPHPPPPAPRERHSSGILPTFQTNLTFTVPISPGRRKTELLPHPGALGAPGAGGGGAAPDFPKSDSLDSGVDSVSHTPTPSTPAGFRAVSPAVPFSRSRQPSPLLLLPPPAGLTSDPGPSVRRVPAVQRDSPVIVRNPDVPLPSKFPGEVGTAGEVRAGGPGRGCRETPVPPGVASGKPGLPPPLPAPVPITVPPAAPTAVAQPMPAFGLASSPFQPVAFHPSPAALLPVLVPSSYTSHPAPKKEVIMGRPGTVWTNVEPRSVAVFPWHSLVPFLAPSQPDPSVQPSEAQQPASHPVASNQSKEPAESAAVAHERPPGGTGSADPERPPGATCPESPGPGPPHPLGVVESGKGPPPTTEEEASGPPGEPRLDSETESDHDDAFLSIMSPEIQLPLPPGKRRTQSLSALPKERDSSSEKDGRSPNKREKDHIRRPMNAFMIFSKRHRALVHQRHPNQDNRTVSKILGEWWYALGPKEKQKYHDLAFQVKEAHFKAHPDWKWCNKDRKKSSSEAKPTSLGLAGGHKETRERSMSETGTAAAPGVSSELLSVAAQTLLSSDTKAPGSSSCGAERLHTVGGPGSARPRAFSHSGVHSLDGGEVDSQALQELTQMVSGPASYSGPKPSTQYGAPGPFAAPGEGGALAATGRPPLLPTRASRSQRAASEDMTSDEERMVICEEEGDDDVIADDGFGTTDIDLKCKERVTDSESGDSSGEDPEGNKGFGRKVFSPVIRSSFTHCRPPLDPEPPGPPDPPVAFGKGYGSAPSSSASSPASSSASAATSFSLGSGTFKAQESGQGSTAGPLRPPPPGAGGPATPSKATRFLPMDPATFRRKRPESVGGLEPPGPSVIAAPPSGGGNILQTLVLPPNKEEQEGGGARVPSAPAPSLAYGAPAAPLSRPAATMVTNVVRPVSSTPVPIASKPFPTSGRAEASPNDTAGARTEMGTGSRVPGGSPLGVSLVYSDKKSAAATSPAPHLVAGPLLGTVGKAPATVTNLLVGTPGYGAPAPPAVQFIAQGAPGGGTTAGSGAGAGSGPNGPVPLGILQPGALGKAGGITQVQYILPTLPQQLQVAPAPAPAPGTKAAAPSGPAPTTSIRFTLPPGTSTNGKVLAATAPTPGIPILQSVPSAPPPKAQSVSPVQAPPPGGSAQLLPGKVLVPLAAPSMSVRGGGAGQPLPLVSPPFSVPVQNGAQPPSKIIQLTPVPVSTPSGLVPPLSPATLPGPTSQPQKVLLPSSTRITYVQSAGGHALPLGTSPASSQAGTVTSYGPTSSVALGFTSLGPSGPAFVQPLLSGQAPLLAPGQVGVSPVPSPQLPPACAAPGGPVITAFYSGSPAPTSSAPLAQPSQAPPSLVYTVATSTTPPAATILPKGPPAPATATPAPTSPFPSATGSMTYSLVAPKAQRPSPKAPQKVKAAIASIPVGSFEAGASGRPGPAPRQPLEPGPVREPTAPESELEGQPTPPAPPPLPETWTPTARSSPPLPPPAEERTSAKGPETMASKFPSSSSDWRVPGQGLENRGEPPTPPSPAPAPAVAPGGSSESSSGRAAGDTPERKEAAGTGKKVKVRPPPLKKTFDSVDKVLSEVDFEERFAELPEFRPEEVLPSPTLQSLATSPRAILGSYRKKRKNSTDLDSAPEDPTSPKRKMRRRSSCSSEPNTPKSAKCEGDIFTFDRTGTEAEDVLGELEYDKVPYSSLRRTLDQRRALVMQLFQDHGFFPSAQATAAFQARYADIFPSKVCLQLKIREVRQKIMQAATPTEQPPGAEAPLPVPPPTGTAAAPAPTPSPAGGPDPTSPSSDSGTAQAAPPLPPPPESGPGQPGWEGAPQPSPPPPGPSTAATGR
UniProt Q14011: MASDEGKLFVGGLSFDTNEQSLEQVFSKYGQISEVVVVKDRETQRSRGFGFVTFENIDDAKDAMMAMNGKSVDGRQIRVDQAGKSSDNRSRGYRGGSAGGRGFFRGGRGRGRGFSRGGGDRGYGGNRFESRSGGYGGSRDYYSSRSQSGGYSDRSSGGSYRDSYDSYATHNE
UniProt Q13111, whole entry, looked up: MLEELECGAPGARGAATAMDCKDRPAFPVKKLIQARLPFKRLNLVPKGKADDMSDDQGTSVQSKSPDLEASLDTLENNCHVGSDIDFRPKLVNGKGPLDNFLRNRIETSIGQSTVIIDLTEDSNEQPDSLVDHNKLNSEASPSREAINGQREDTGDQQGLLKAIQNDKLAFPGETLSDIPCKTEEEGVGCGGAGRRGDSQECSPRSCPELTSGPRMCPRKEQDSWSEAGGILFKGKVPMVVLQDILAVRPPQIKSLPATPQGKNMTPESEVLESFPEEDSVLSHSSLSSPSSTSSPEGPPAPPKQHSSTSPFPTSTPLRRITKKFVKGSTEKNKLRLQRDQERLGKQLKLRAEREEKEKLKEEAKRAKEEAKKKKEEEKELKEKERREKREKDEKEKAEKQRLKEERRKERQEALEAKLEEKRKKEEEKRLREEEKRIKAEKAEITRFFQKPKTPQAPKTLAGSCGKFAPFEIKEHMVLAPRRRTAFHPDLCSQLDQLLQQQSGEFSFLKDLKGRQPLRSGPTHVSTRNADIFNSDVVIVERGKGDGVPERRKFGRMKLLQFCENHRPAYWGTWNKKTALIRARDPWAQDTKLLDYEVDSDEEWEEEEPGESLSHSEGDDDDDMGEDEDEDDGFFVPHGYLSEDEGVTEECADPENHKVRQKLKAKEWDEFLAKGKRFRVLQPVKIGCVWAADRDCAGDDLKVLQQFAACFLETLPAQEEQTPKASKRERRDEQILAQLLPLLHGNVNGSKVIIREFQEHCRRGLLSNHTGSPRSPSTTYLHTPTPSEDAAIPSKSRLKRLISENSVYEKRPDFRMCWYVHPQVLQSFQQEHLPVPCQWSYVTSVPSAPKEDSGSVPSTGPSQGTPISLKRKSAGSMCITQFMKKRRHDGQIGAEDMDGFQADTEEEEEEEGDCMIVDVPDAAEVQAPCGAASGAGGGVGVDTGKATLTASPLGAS

How the values were obtained:
Assay in all cases: log2 fold change, soluble protein after heating vs DMSO (PISA); higher = thermal stabilisation; K562 lysate, 10 uM; active = over 0.2 and 3.5 SD of the protein, either way, in both replicates (recomputed)
[1] = compound: CCCS(=O)(=O)Nc1ccc(F)c(C(=O)c2c[nH]c3ncc(-c4ccc(Cl)cc4)cc23)c1F [vemurafenib]
Summary of the method: (§1)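 K562 pellets were dounce-homogenised in PBS pH 7.4 containing 1 mM MgCl2, and the crude extract, at 1 mg/mL protein, was exposed to 10 μM compound for 30 min. Aliquots were heated for 3 min across 48°C-58°C, pooled, brought to 0.5% NP-40 at 4°C and spun at 21,000xg for 90 min, with the supernatant taken as soluble protein. TMTpro 16plex LC-MS/MS with equalised channel sums quantified that protein. Values are log-two fold changes in thermal stability relative to solvent controls, taken from duplicates.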

[2] = compound: CCCS(=O)(=O)Nc1ccc(F)c(C(=O)c2c[nH]c3ncc(Cl)cc23)c1F
Summary of the method: as §1

[3] = compound: CCN(CCCOc1ccc2c(Nc3cc(CC(=O)Nc4cccc(F)c4)[nH]n3)ncnc2c1)CCOP(=O)(O)O [barasertib]
Summary of the method: as §1

[4] = compound: CC[C@@H]1C(=O)N(C)c2cnc(Nc3ccc(C(=O)NC4CCN(C)CC4)cc3OC)nc2N1C1CCCC1
Summary of the method: as §1

[5] = compound: CC[C@@H]1C(=O)N(C)c2cnc(Nc3ccc(C(=O)N[C@H]4CC[C@H](N5CCN(CC6CC6)CC5)CC4)cc3OC)nc2N1C(C)C [volasertib]
Summary of the method: as §1

[6] = compound: CCn1c(C(=O)N(C2CC2)C2CC2)cc2c3c(ncn3C)c(Nc3cc(C)n(C)n3)nc21
Summary of the method: as §1

[7] = compound: CCn1cc(-c2ccnc3[nH]c(-c4cccc(CN(C)C)c4)cc23)c(-c2ccc(NC(=O)N(C)C)cc2)n1
Summary of the method: as §1

[8] = compound: CN1CCC(CNc2ccc3ncc(-c4cccc(OC(F)(F)F)c4)n3n2)CC1
Summary of the method: as §1

[9] = compound: CN1CCN(CCOc2cc(OC3CCOCC3)c3c(Nc4c(Cl)ccc5c4OCO5)ncnc3c2)CC1 [saracatinib]
Summary of the method: as §1

[10] = compound: CN1CCN(c2nc(C3=C(c4c[nH]c5ccccc45)C(=O)NC3=O)c3ccccc3n2)CC1 [sotrastaurin]
Summary of the method: as §1

Row | Target | log2 fold change [1] | log2 fold change [2] | log2 fold change [3] | log2 fold change [4] | log2 fold change [5] | log2 fold change [6] | log2 fold change [7] | log2 fold change [8] | log2 fold change [9] | log2 fold change [10]
1 | CLINT1 isoform 3 (UniProt Q14677) | inactive: 0.027 | inactive: -0.001 | inactive: 0.019 | inactive: 0.106 | inactive: 0.005 | inactive: 0.028 | inactive: 0.005 | inactive: -0.028 | inactive: 0.024 | inactive: -0.007
2 | CHMP2A (UniProt O43633) | inactive: -0.006 | inactive: -0.01 | inactive: -0.103 | inactive: 0.013 | inactive: 0.049 | inactive: -0.006 | inactive: -0.111 | inactive: 0.023 | inactive: -0.011 | inactive: -0.023
3 | CLCN3 (UniProt P51790) | inactive: -0.096 | inactive: -0.076 | inactive: 0.014 | inactive: -0.178 | inactive: -0.025 | inactive: 0.034 | inactive: 0.009 | inactive: 0.004 | inactive: 0.01 | inactive: -0.017
4 | CISH isoform 3 (UniProt Q9NSE2) | inactive: -0.043 | – | – | – | – | – | – | – | – | –
5 | CHML (UniProt P26374) | inactive: 0.01 | inactive: 0.008 | inactive: 0.004 | inactive: 0.011 | inactive: 0.022 | inactive: -0.007 | inactive: -0.012 | inactive: 0.026 | inactive: -0.002 | inactive: 0.005
6 | CHCHD2P9 (UniProt Q5T1J5) | inactive: 0.08 | inactive: -0.01 | inactive: -0.022 | inactive: 0.113 | inactive: 0.014 | inactive: -0.053 | inactive: 0.048 | inactive: 0.116 | inactive: -0.061 | inactive: 0.082
7 | CHID1 (UniProt Q9BWS9) | inactive: 0.017 | inactive: -0.011 | inactive: 0.019 | inactive: 0.038 | inactive: -0.006 | inactive: -0.007 | inactive: 0.088 | inactive: -0.045 | inactive: 0.004 | inactive: -0.009
8 | CLPTM1 (UniProt O96005) | inactive: 0.047 | inactive: 0.007 | inactive: 0.04 | inactive: -0.014 | inactive: -0.066 | inactive: -0.033 | inactive: -0.017 | inactive: 0.088 | inactive: 0.006 | inactive: 0.058
9 | CHMP1A (UniProt Q9HD42) | inactive: -0.012 | inactive: 0.013 | inactive: -0.012 | inactive: 0.052 | inactive: 0.039 | inactive: 0.026 | inactive: 0.009 | inactive: 0.01 | inactive: -0.021 | inactive: 0.019
10 | CHKA (UniProt P35790) | inactive: -0.039 | inactive: -0.057 | inactive: -0.044 | inactive: -0.012 | inactive: 0.002 | inactive: -0.009 | inactive: 0.051 | inactive: 0.028 | inactive: 0.052 | inactive: 0.029
11 | CIB1 (UniProt Q99828) | inactive: 0.096 | inactive: 0.027 | inactive: 0.155 | inactive: -0.013 | inactive: 0.008 | inactive: -0.047 | inactive: -0.028 | inactive: -0.028 | inactive: 0.017 | inactive: -0.077
12 | CHD8 (UniProt Q9HCK8) | inactive: 0.079 | inactive: 0.024 | inactive: 0.034 | inactive: -0.056 | inactive: -0.135 | inactive: -0.017 | inactive: 0 | inactive: 0.01 | inactive: 0.042 | inactive: 0.026
13 | CMPK1 (UniProt P30085) | inactive: -0.071 | inactive: -0.047 | inactive: -0.033 | inactive: -0.043 | inactive: -0.001 | inactive: 0.008 | inactive: -0.097 | inactive: 0.066 | inactive: 0.027 | inactive: 0.031
14 | CMAS (UniProt Q8NFW8) | inactive: 0.005 | inactive: 0.025 | inactive: 0.023 | inactive: 0.019 | inactive: 0.008 | inactive: -0.018 | inactive: -0.106 | inactive: 0.016 | inactive: 0.012 | inactive: 0.001
15 | CHAF1B (UniProt Q13112) | inactive: 0.005 | inactive: -0.015 | inactive: 0.013 | inactive: 0.016 | inactive: 0.02 | inactive: -0.025 | inactive: -0.048 | inactive: 0.033 | inactive: 0.007 | inactive: -0.014
16 | CKAP5 (UniProt Q14008) | inactive: -0.023 | inactive: -0.013 | inactive: 0.003 | inactive: -0.002 | inactive: -0.021 | inactive: 0.022 | inactive: -0.016 | inactive: -0.033 | inactive: 0.005 | inactive: 0.025
17 | CMTM3 (UniProt Q96MX0) | inactive: 0.053 | inactive: -0.014 | inactive: -0.04 | inactive: -0.089 | inactive: 0.014 | inactive: 0.03 | inactive: 0.053 | inactive: -0.055 | inactive: 0.012 | inactive: -0.005
18 | CMC1 (UniProt Q7Z7K0) | inactive: -0.037 | inactive: 0.008 | inactive: -0.045 | inactive: 0.045 | inactive: 0.023 | inactive: 0.036 | inactive: -0.008 | inactive: 0.042 | inactive: 0.096 | inactive: 0.078
19 | CLTB isoform 2 (UniProt P09497) | inactive: -0.036 | inactive: -0.001 | inactive: 0.093 | inactive: 0.025 | inactive: 0.001 | inactive: -0.046 | inactive: 0.047 | inactive: 0.015 | inactive: 0.027 | inactive: -0.016
20 | CIC (UniProt I3L2J0) | inactive: -0.077 | inactive: -0.043 | active: 0.4 | inactive: -0.057 | inactive: -0.032 | inactive: 0.001 | inactive: -0.05 | inactive: -0.004 | inactive: 0.021 | inactive: -0.016
21 | CHTOP isoform 3 (UniProt Q9Y3Y2) | inactive: -0.032 | inactive: 0.05 | inactive: -0.045 | inactive: 0.114 | inactive: -0.025 | inactive: -0.083 | inactive: -0.106 | inactive: 0.037 | inactive: 0.036 | inactive: -0.008
22 | CHD1L (UniProt Q86WJ1) | inactive: 0.033 | inactive: 0.011 | inactive: 0.062 | inactive: -0.029 | inactive: -0.09 | inactive: 0.024 | inactive: -0.053 | inactive: -0.054 | inactive: 0 | inactive: -0.001
23 | CMPK2 (UniProt Q5EBM0) | inactive: 0.026 | inactive: 0.048 | inactive: 0.155 | inactive: 0.018 | inactive: 0.015 | inactive: -0.03 | inactive: -0.001 | inactive: 0.007 | inactive: 0.006 | inactive: -0.019
24 | CHCHD7 isoform 4 (UniProt Q9BUK0) | inactive: 0.026 | inactive: 0.06 | inactive: -0.026 | inactive: 0.073 | inactive: -0.064 | inactive: 0.021 | active: -0.71 | inactive: 0.155 | inactive: -0.021 | inactive: 0.077
25 | CIRBP (UniProt Q14011) | inactive: -0.022 | inactive: 0.001 | inactive: -0.017 | inactive: 0.007 | inactive: 0.028 | inactive: -0.003 | inactive: -0.008 | inactive: -0.003 | inactive: -0.032 | inactive: 0
26 | CHORDC1 (UniProt Q9UHD1) | inactive: 0.017 | inactive: -0.003 | inactive: -0.029 | inactive: 0.009 | inactive: 0.02 | inactive: 0.002 | active: 0.288 | inactive: -0.003 | inactive: -0.006 | inactive: -0.036
27 | CHAF1A (UniProt Q13111) | inactive: 0.005 | inactive: 0.005 | inactive: 0.006 | inactive: 0.029 | inactive: 0.003 | inactive: -0.009 | inactive: 0.029 | inactive: 0.004 | inactive: 0.038 | inactive: -0.016
28 | CLIP1 isoform 1 (UniProt P30622) | inactive: -0.011 | inactive: 0.016 | inactive: -0.011 | inactive: 0.034 | inactive: 0.034 | inactive: -0.03 | inactive: -0.055 | inactive: 0.02 | inactive: 0.021 | inactive: 0.008

6 entries from above, with tabs.
Row	Target	log2 fold change [1]	log2 fold change [2]	log2 fold change [3]	log2 fold change [4]	log2 fold change [5]	log2 fold change [6]	log2 fold change [7]	log2 fold change [8]	log2 fold change [9]	log2 fold change [10]
13	CMPK1 (UniProt P30085)	inactive: -0.071	inactive: -0.047	inactive: -0.033	inactive: -0.043	inactive: -0.001	inactive: 0.008	inactive: -0.097	inactive: 0.066	inactive: 0.027	inactive: 0.031
14	CMAS (UniProt Q8NFW8)	inactive: 0.005	inactive: 0.025	inactive: 0.023	inactive: 0.019	inactive: 0.008	inactive: -0.018	inactive: -0.106	inactive: 0.016	inactive: 0.012	inactive: 0.001
15	CHAF1B (UniProt Q13112)	inactive: 0.005	inactive: -0.015	inactive: 0.013	inactive: 0.016	inactive: 0.02	inactive: -0.025	inactive: -0.048	inactive: 0.033	inactive: 0.007	inactive: -0.014
16	CKAP5 (UniProt Q14008)	inactive: -0.023	inactive: -0.013	inactive: 0.003	inactive: -0.002	inactive: -0.021	inactive: 0.022	inactive: -0.016	inactive: -0.033	inactive: 0.005	inactive: 0.025
17	CMTM3 (UniProt Q96MX0)	inactive: 0.053	inactive: -0.014	inactive: -0.04	inactive: -0.089	inactive: 0.014	inactive: 0.03	inactive: 0.053	inactive: -0.055	inactive: 0.012	inactive: -0.005
18	CMC1 (UniProt Q7Z7K0)	inactive: -0.037	inactive: 0.008	inactive: -0.045	inactive: 0.045	inactive: 0.023	inactive: 0.036	inactive: -0.008	inactive: 0.042	inactive: 0.096	inactive: 0.078
